Measurements: patent US20260115161A1, “2-HYDROXY-OCTADECENE-9-CIS-OATE FOR USE IN THE TREATMENT OF ONCOLOGICAL PATHOLOGIES AND NEUROPATHIC PAIN” (Laminar Pharmaceuticals S.A., priority 2023, published 2026)

Test system: U118 Glioblastoma
Test: Cell line assay, HOCOS combinations, U118
Format: cell-based
Details: Homo sapiens; U118, compound alone
Protocol: To study the possible use of HOCOS in combinatorial therapies, human glioblastoma cells of lines U118, SNB19, SF268, human mesothelioma cells NCI-H2021 and pancreatic cancer cells BxPC-3 (pancreatic adenocarcinoma) and MIAPaCa-2 ([…]) were cultured in the absence or presence of different chemotherapeutic agents and combinations of HOCOS with said compounds.

Cc1ccc(NC(=O)c2ccc(CN3CCN(C)CC3)cc2)cc1Nc1nccc(-c2cccnc2)n1 [Imatinib]
IC50: 234 nM
